B1: Arabidopsis thaliana SOB3 (SUPPRESSOR OF PHYTOCHROME B-4 #3) protein (other)
chain: MDGGYDQSGGASRYFHNLFRPELHHQLQPQPQLHPLPQPQPQPQPQQQNSDDESDSNKDPGSDPVTSGSTGKRPRGRPPGSKNKPKPPVIVTRDSPNVLRSHVLEVSSGADIVESVTTYARRRGRGVSILSGNGTVANVSLRQPATTAAHGANGGTGGVVALHGRFEILSLTGTVLPPPAPPGSGGLSIFLSGVQGQVIGGNVVAPLVASGPVILMAASFSNATFERLPLEDEGGEGGEGGEVGEGGGGEGGPPPATSSSPPSGAGQGQLRGNMSGYDQFAGDPHLLGWGAAAAAAPPRPAF
notes: Tested as fusions, not as free protein; In Y2H it was a lexA bait (pBTM116-D9) or a pACT2 prey; In BiFC it was fused to n(1-174)EYFP or c(175-end)EYFP and expressed in onion epidermal cells; also called AHL29; SOB3/AHL29
B2: Arabidopsis thaliana HERCULES (HRC/AHL25) protein (other)
chain: MSSYMHPLLGQELHLQRPEDSRTPPDQNNMELNRSEADEAKAETTPTGGATSSATASGSSSGRRPRGRPAGSKNKPKPPTIITRDSPNVLRSHVLEVTSGSDISEAVSTYATRRGCGVCIISGTGAVTNVTIRQPAAPAGGGVITLHGRFDILSLTGTALPPPAPPGAGGLTVYLAGGQGQVVGGNVAGSLIASGPVVLMAASFANAVYDRLPIEEEETPPPRTTGVQQQQPEASQSSEVTGSGAQACESNLQGGNGGGGVAFYNLGMNMNNFQFSGGDIYGMSGGSGGGGGGATRPAF
notes: Tested as EYFP-half fusions in BiFC; also called HRC1; AT4G35390
B3: Arabidopsis thaliana ESC (ESCAROLA) protein (other)
chain: MEGGYEQGGGASRYFHNLFRPEIHHQQLQPQGGINLIDQHHHQHQQHQQQQQPSDDSRESDHSNKDHHQQGRPDSDPNTSSSAPGKRPRGRPPGSKNKAKPPIIVTRDSPNALRSHVLEVSPGADIVESVSTYARRRGRGVSVLGGNGTVSNVTLRQPVTPGNGGGVSGGGGVVTLHGRFEILSLTGTVLPPPAPPGAGGLSIFLAGGQGQVVGGSVVAPLIASAPVILMAASFSNAVFERLPIEEEEEEGGGGGGGGGGGPPQMQQAPSASPPSGVTGQGQLGGNVGGYGFSGDPHLLGWGAGTPSRPPF
notes: Tested as fusions: lexA bait or pACT2 prey in Y2H, and N- or C-terminal EYFP half in BiFC; also called AHL27; ESC/AHL27

Key:
[1] = molecular target: the molecule itself; test: BiFC (split YFP), onion epidermal cells
From the text: (§1) Onion epidermal cells were transformed with the indicated plasmid combination. A monomeric red fluorescent protein (pSAT6-mRFP) was used with each combination as a positive control.
(§2) We further examined these interactions in planta using a transient Bimolecular Fluorescence Complementation (BiFC) Assay with onion epidermal cells biolistically transformed with Gateway® compatible vectors derived from pSAT4-DEST-n(1-174)EYFP-C1 and pSAT5-DEST-c(175-end)EYFP-C1(B) (Citovsky et al., 2006). The cDNAs for SOB3, ESC and HRC were cloned into each BiFC plasmid as in-frame translational fusions with either the N- or C-terminal half of a yellow fluorescent protein (YFP). Empty vectors were used as negative controls. Pairs of BiFC plasmids together with the pSAT6-mRFP plasmid encoding a red fluorescent protein (RFP) were co-bombarded into onion epidermal cells using a PDS-1000/He Biolistic transformation system (BIO-RAD). Reconstructed fluorescence was examined after 40 hours of incubation in the dark with a Zeiss LSM 510 META confocal microscope. The monomeric red fluorescence from the RFP was used to identify successful transformation into onion cells (FIG. 4). […] In the BIFC assay using negative controls (data not shown), yellow fluorescence could not be observed.

[2] = molecular target: B3; test: yeast two-hybrid, lexA-based (pBTM116-D9 bait, pACT2 prey, strain L40ccU3)
From the text: (A) SOB3 was used as prey(pACT2) and ESC was used as bait (pBTM116). Five individual colonies were picked and re-plated on SDII (selection medium containing leucine and histidine) or SDIV (selection medium without leucine and histidine). Pictures were taken 3 days after plating. (B) SOB3 was used as bait and ESC was used as prey.
Protein-protein interaction studies. We first tested the hypothesis that SOB3 can associate with ESC using a yeast two-hybrid (Y2H) approach. For the Y2H assay, a lexA-based system was used consisting of pBTM116-D9 as a bait plasmid and pACT2 (Clontech, Palo Alto, Calif.) as a prey plasmid, together with the yeast reporter strain L40ccU3. Coding sequences of SOB3 and ESC proteins were recombined into both the bait and prey vectors via Gateway® reactions (Invitrogen, Carlsbad, Calif.).

[3] = molecular target: B3; test: BiFC (split YFP), onion epidermal cells
From the text: as §1, §2

[4] = molecular target: B1; test: BiFC (split YFP), onion epidermal cells
From the text: as §1, §2

| Binder | binding result [1] | binding result [2] | binding result [3] | binding result [4] |
| --- | --- | --- | --- | --- |
| B1 | binds | binds |  |  |
| B2 | binds |  | binds | binds |
| B3 | binds |  |  |  |
